According to PubChem BioAssay AID743266 (National Center for Advancing Translational Sciences (NCATS), 2014):
Among all 410,000 compounds or so, about 310 (0.076%) were called active. The shares of active, inactive and inconclusive entries below differ from those in the screen. The call rests on the fitted dose curve; in most records, active means well fitted activation curve with a large enough effect; inconclusive means small, poorly fitted or top-dose-only effect, or another doubt; inactive means no such curve, though single readings can be large or run the other way. A potency beside an inconclusive call is a rough fit, not a confirmed value.

The chains behind the UniProt entries cited, without tags or fusion partners. Where a name states a change or a piece, a line headed by the entry shows the natural chain unless it says otherwise.
UniProt Q03431: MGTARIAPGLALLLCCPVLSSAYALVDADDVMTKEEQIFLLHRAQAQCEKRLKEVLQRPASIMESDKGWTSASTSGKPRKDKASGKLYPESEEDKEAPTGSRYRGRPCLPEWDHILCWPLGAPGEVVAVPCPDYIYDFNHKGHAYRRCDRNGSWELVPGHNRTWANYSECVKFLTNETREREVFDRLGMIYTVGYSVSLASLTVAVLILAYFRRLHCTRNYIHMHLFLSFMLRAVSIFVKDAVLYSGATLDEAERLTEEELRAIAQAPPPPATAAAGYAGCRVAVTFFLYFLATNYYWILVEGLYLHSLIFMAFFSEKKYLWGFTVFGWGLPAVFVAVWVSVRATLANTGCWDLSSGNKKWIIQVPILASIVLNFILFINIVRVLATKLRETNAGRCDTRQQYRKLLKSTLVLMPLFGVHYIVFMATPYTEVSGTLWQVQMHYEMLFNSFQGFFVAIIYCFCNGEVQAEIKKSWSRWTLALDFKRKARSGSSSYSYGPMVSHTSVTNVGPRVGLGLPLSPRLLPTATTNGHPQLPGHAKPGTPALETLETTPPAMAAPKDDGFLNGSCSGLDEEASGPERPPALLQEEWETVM

Target: Parathyroid hormone/parathyroid hormone-related peptide receptor (Homo sapiens) (UniProt Q03431)
Experiment: qHTS for PTHR1 Agonists: Primary Screen; further: nearly all actives have a fitted effect of over 55% in size
Settings: HEK293 GP2 PTHR1 cells, GloSensor cAMP luminescence, 1 h; activation: at 115 µM (top of the series) unless noted; series mostly up to 115 µM
From the text: The goal of the proposed studies is to discover new compounds that act as potent agonists on the parathyroid hormone receptor type-1 (PTHR1). The PTHR1 plays critical roles in maintaining blood calcium and phosphate levels, as well as in controlling bone remodeling. PTHR1 agonists could thus be useful for treating diseases such as hypoparathyroidism and osteoporosis. In the former disease, an agonist drug would help maintain normal blood calcium and phosphate levels under conditions of parathyroid hormone deficiency. In the latter disease, an agonist drug would stimulate new bone formation and thus reduce the risk of fracture, under conditions of bone fragility, as occurs in aging.
To that end, we performed a quantitative high-throughput screening (qHTS) of the Molecular Libraries Probe Centers Network (MLPCN) compound libraries at the NIH Chemical Genomics Center (NCGC) for the parathyroid hormone receptor type-1 (PTHR1) using a unique HEK-293-derived cell line (GP2) that expresses the PTHR1 and a glosensor cAMP reporter construct.
NIH Molecular Libraries Probe Production Centers Network [MLPCN]
NIH Chemical Genomics Center [NCGC]
Assay Submitter (PI): Thomas Gardella, Massachusetts General Hospital
4 microL are dispensed into a 1536-well micro plate to yield 3,000 cells/well. The plates are then incubated overnight, after which 4 microL of 0.5 mM of BIoTium Luciferin plus 0.5 mM IBMX are added. They are then incubated at 37 degree for one hour before 23 nL of compounds are added through pinning and then incubated at 37 degree again for another hour. After the plates are kept at room temperature for 15 min before they are read on the ViewLux to measure luminescence.
Potency means the concentration at half of the fitted maximal effect.

| Structure (SMILES) | Potency | activation |
| --- | --- | --- |
| O=C(Nc1ccc(-c2cscn2)cc1)C1CCCN(Cc2ccccc2)C1 (stereo not given) | inconclusive: 44.7 µM [activator, single point] | – |
| CCC(=O)N1CCc2cc(Br)cc(S(=O)(=O)N3CCCC(C(=O)N(C)c4ccc(Br)cc4)C3)c21 (stereo not given) | – | inconclusive: -37.2% [activator] |
| COc1ccc(S(=O)(=O)N(C)C)cc1NS(=O)(=O)c1ccc(F)c(F)c1F | inconclusive: 112 µM [activator, single point] | – |
| Cc1cc(C)c2c(n1)nn1c(N3CCN(c4ccccc4)CC3)cc(C)nc21 | inconclusive: 1.41 µM [activator, full curve, poor fit] | – |
| COc1cc(NC(=O)c2ccc([N+](=O)[O-])o2)ccc1NC(=O)c1cccs1 | inactive | – |
| CCCCN(CC)C(=O)c1n[nH]c(=O)c2ccccc12 | inconclusive: 2.24 µM [activator, full curve] | – |
| O=c1cc(-c2ccc(Cl)cc2)[nH]c2ccccc12 | – | inconclusive: 29.9% [activator] |
| Cc1ccccc1C(=O)Nc1ccccc1-n1cccc1 | inconclusive: 15.8 µM [activator, partial curve, poor fit] | – |
| COc1ccccc1NC(=O)C1=C(C)Nc2nc(CCCO)nn2C1c1ccc2c(c1)OCO2 (stereo not given) | inconclusive: 15.8 µM [activator, partial curve] | – |
| OC1(c2ccc3c(c2)OCO3)CCN(Cc2ccccn2)CC1 | inconclusive: 4.47 µM [activator, full curve, poor fit] | – |
| Cc1ccc(Cn2ccc(NC(=O)c3cc(-c4ccc(F)cc4)on3)n2)cc1 | inconclusive: 6.31 µM [activator, full curve, poor fit] | – |
| COc1cc(OC)c(Nc2cc(C)nc3ncnn23)cc1Cl | inconclusive: 79.4 µM [activator, partial curve, poor fit] | – |
| O=C(OCc1cn([C@H]2C[C@H](c3ccc(Cl)cc3)N(C(=O)c3cccs3)C[C@@H]2O)nn1)c1ccccc1 | inactive | – |
| CC(=O)Nc1ccc(NS(=O)(=O)c2ccc3[nH]c(=O)[nH]c3c2)cc1 | inconclusive: 2.24 µM [activator, full curve, poor fit] | – |
| CCOC(=O)c1sc2nc(C)[nH]c(=O)c2c1C | inconclusive: 141 µM [activator, single point] | – |
| CCOc1cc(/C=C(\C(=O)O)c2ccc(S(=O)(=O)N3CCCC3)s2)ccc1OC | inconclusive: 44.7 µM [activator, partial curve, poor fit] | – |
| O=S(=O)(c1ccc2c(c1)CCN2)N1CCCC1 | inconclusive: 158 µM [activator, single point] | – |
| COc1cc2c(cc1OC)C(COc1ccc([N+](=O)[O-])cc1)N(C(C)=O)CC2 (stereo not given) | inactive | – |
| COc1ccc(NC(=O)C2=C(C)NC(=O)NC2c2cccs2)c(OC)c1 (stereo not given) | inconclusive: 56.2 µM [activator, partial curve, poor fit] | – |
| COc1cc2c(cc1NC(=O)c1cc(-c3cccnc3)nc3ccc(C)cc13)oc1ccccc12 | – | inconclusive: 80.8% [activator] [at 57.5 µM] |
| CN(C)c1ccc(CNC(=O)/C=C/[C@H]2O[C@@H](n3cnc4c(NC(=O)c5ccccc5)ncnc43)[C@H](O)[C@@H]2O)cc1 | inconclusive: 141 µM [activator, single point] | – |
| O=C(Nc1cc(Cl)cc(Cl)c1)C1CC(=O)N(C2CCCC2)C1 (stereo not given) | inactive | – |

Some of these compounds in order of SMILES length, smallest number first.

| Structure (SMILES) | Potency | activation |
| --- | --- | --- |
| OC1(c2ccc3c(c2)OCO3)CCN(Cc2ccccn2)CC1 | inconclusive: 4.47 µM [activator, full curve, poor fit] | – |
| O=C(Nc1ccc(-c2cscn2)cc1)C1CCCN(Cc2ccccc2)C1 (stereo not given) | inconclusive: 44.7 µM [activator, single point] | – |
| CCC(=O)N1CCc2cc(Br)cc(S(=O)(=O)N3CCCC(C(=O)N(C)c4ccc(Br)cc4)C3)c21 (stereo not given) | – | inconclusive: -37.2% [activator] |

More compounds follow:

| Structure (SMILES) | Potency | activation |
| --- | --- | --- |
| O=C(O)c1ccc(S(=O)(=O)N(Cc2ccccc2)C2CCCCC2)cc1 | inconclusive: 112 µM [activator, single point] | – |
| Cc1cccc(NC(=O)c2cc(NC(=O)c3ccco3)ccc2N2CCCCC2)c1 | inconclusive: 0.251 µM [activator, partial curve, poor fit] | – |
| COCCN1C(=O)c2ccccc2C1c1nnnn1-c1ccc2c(c1)OCCO2 (stereo not given) | inactive | – |
| CCOC(=O)c1cc2c(=O)n3ccccc3nc2n(CC(C)C)c1=NC(=O)c1cc2ccccc2o1 | inactive | – |
| COc1ccccc1C(c1c(N)n(C)c(=O)n(C)c1=O)C(C)[N+](=O)[O-] (stereo not given) | inactive | – |
| COc1ccc(OC)c(NC(=O)NCc2cccnc2)c1 | inconclusive: 126 µM [activator, partial curve, poor fit] | – |
| COc1ccc(CCNC(=O)C/C(C)=N/NC(=O)c2ccc(N)cc2)cc1OC | inconclusive: 39.8 µM [activator, single point] | – |
| COc1ccc(/C=C/C(=O)Nc2nc3n(n2)C(c2ccccc2)C=C(c2ccccc2)N3)cc1 (stereo not given) | inconclusive: 141 µM [activator, single point] | – |
| COc1ccc(OC)c(S(=O)(=O)N2CCN(c3ccccn3)CC2)c1 | inactive | – |
| N#Cc1ccccc1NC(=O)C(=O)NCC(c1ccc2c(c1)OCO2)N1CCN(c2ccccc2)CC1 (stereo not given) | inconclusive: 141 µM [activator, single point] | – |
| COc1cc(C2c3c(oc4ccc(C)cc4c3=O)C(=O)N2Cc2ccc(F)cc2)ccc1O (stereo not given) | inconclusive: 126 µM [activator, single point] | – |
| CCOC(=O)Cc1csc(NC(=O)CSc2nnc(-c3ccc(OC)cc3)n2C)n1 | inconclusive: 50.1 µM [activator, single point] | – |
| COc1ccc(C(=O)Nc2nnc(S(=O)(=O)N3CCOCC3)s2)cc1 | inconclusive: 7.08 µM [activator, partial curve] | – |
| COc1ccc(NC(=O)CCN2CCCCC2)cc1 | inconclusive: 2.82 µM [activator, single point] | – |
| O=C(/C=C/c1ccco1)NC(=S)Nc1cccc(C(=O)O)c1 | inconclusive: 50.1 µM [activator, partial curve, poor fit] | – |
| COc1cc2cc(C#N)c(SCC(=O)Nc3cc(C)on3)nc2cc1OC | – | inconclusive: -26.5% [activator] |
| COc1ccc(/C=C2\N=C(c3ccccc3)N(c3ccc(C(=O)O)cc3)C2=O)cc1OC | inactive | – |
| COc1ccc(S(=O)(=O)N(C)C[C@H]2Oc3ccc(NS(=O)(=O)c4ccccc4)cc3C(=O)N([C@H](C)CO)C[C@@H]2C)cc1 | inactive | – |
| COCCCNC(=O)c1cnn(-c2ccccc2Cl)c1C1CCN(C(=O)OC(C)(C)C)CC1 | inconclusive: 25.1 µM [activator, single point] | – |
| Cc1cc(NS(=O)(=O)c2ccc(NC(=O)CSc3nc4ncc(Cl)cc4[nH]3)cc2)nc(C)n1 | inconclusive: 126 µM [activator, single point] | – |
| CCCc1cc(=O)oc2cc(OC(C)C(=O)NCC3CCC(C(=O)O)CC3)ccc12 (stereo not given) | inconclusive: 44.7 µM [activator, single point] | – |
| CCOc1cc(NC(=O)CC(C)C)c(OCC)cc1NC(=O)CCn1nnc2ccccc21 | inconclusive: 50.1 µM [activator, single point] | – |

| Structure (SMILES) | Potency | activation |
| --- | --- | --- |
| COC(=O)CSc1ncccc1-c1nc2ccccc2[nH]1 | inconclusive: 39.8 µM [activator, single point] | – |
| COC(=O)C1Cc2c([nH]c3ccccc23)C2(CCN(Cc3ccccc3)CC2)N1 (stereo not given) | inconclusive: 141 µM [activator, single point] | – |
| CS(=O)(=O)c1ccccc1-c1nnc(NC(=O)c2cccc(N3C(=O)CCC3=O)c2)o1 | inactive | – |
| CC/C(=N\NC(=O)CCC(=O)NCc1ccccc1)c1ccc(O)cc1 | inconclusive: 56.2 µM [activator, partial curve, poor fit] | – |
| Cc1ccc(NC(=O)CSc2ncnc3c2sc2ccccc23)cc1C | – | inconclusive: -94.9% [activator] |
| COc1ccc(CC(=O)OCC(=O)c2ccc[nH]2)cc1 | inactive | – |
| Cc1nnc(SCc2nnc(-c3ccccc3)o2)n(N)c1=O | inconclusive: 44.7 µM [activator, single point] | – |
| Cc1ccccc1C(C)NC(=O)COC(=O)Cn1cc(C(F)(F)F)ccc1=O (stereo not given) | inconclusive: 12.6 µM [activator, partial curve] | – |
| Nc1nc2c(ncn2[C@@H]2O[C@H](CNCc3ccccc3)[C@@H](O)[C@H]2O)c(=O)[nH]1 | – | inconclusive: 53.2% [activator] |
| COc1ccc(OCCN(C)C(=O)c2cccc(S(=O)(=O)N(C)c3ccccc3)c2)cc1 | inactive | – |
| COc1ccc(-c2ccc(C(=O)NCCN3CCOCC3)c3occc23)c(C)c1 | – | inconclusive: -63.1% [activator] |
| O=C(C1CCC1)N1CCN(S(=O)(=O)c2ccccc2)CC1 | inconclusive: 2 µM [activator, full curve, poor fit] | – |
| Cc1cccc(C(=O)N2CCCC(N3CCN(Cc4ccc5c(c4)OCO5)CC3)C2)n1 (stereo not given) | – | inconclusive: 37.3% [activator] |
| O=C(N/N=C/c1cccnc1)C(O)c1ccccc1 (stereo not given) | – | inconclusive: 24.8% [activator] |
| O=C(Nc1ccc(NC(=O)N2CCN(c3ccccc3O)CC2)cc1)N1CCN(c2ccccc2O)CC1 | inactive | – |
| COc1ccccc1COC(=O)C(NC(=O)c1ccc(C)cc1)C(C)C (stereo not given) | inactive | – |
| Cc1ccc(N2C(=O)[C@@H]3[C@H](C2=O)[C@H]2C=C(C(=O)c4ccccc4)C=CN2[C@@H]3C(=O)c2ccc(Cl)cc2)cc1 | inactive | – |
| NC(N)=NC(N)=Nc1ccccc1 | inconclusive: 112 µM [activator, single point] | – |
| O=C(N1CCOCC1)N1[C@H](COCc2ccccc2)C=CS1(=O)=O | – | inconclusive: -57.6% [activator] |
| COc1ccc(-n2cc(CN3CCCC3)c(-c3cccc(F)c3)n2)cc1 | – | inconclusive: 38.2% [activator] |
| COC(=O)C1=CN(c2ccc(OC)cc2)C(N)=C(C#N)C1c1cccc2ccccc12 (stereo not given) | inactive | – |
